Reference: PubChem BioAssay AID2685 (National Center for Advancing Translational Sciences (NCATS), 2010)
The other results are listed elsewhere or left out. These are further read-outs of the screen, such as a control signal, another cell line or another target. No call is given for them. Compounds called inactive in the main read-out are mostly missing here. The note in brackets gives the kind of curve behind each potency; many fits are weak.

Test: qHTS Assay for Lipid Storage Modulators in Drosophila S3 Cells;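 for cell number change: cells counted by Cell Tracker Red CMTPX staining in the red channel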
Conditions: BODIPY lipid droplet fluorescence, 18-24 h; for cell number change: measured here: cell count max response, cells fed with added oleic acid
How it was run: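 Laser-scanning cytometry quantifies lipid droplet accumulation (500–530 nm total intensity; droplet/cell object ratio) in oleic acid-fed (400 uM added) Drosophila S3 cells treated with a concentration series. 20 uM Triacsin C defined 100% inhibition.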

[1] = measured here: lipid fluorescence (Fed channel) AC50, cells fed with added oleic acid
[2] = measured here: cell number channel AC50, cells fed with added oleic acid

| SMILES | cell number change [%] | AC50 [1] | AC50 [2] |
| --- | --- | --- | --- |
| C#CC[N+](C)(C)CCCCCCCCCCCC | -21.2 | 16.4 µM [falling, partial curve] |  |
| CC1Cc2ccccc2N1C(=S)NC(=O)c1cccc(Br)c1 (centres undefined) | 4.31 |  |  |
| O=c1[nH]c2ccccc2n1C1=CCNCC1 | 32 | 29.1 µM [rising, single point] | 29.1 µM [rising, single point] |
| O=C(CCNS(=O)(=O)c1c(Cl)cccc1Cl)OCC(=O)c1ccccc1 | 35.1 | 29.1 µM [rising, single point] | 29.1 µM [rising, single point] |
| Cc1ccc(S(=O)(=O)Cc2ccc(C(=O)NC3CCCC3)o2)cc1 | 6.11 | 29.1 µM [rising, single point] |  |
| CN1CCN(CCCCOc2ccccc2C=O)CC1 | -1.55 | 0.116 µM [falling, full curve, poor fit] |  |
| CC1CN(C(=S)Nc2ccccc2)CC(C)O1 (centres undefined) | -4.99 |  |  |
| Cc1nn(Cc2ccccc2)c(Cl)c1/C=N/NC(=O)c1cccnc1 | -2.12 |  |  |
| Cc1ccc(NS(=O)(=O)c2cc(OCC(N)=O)c(C)cc2Cl)cc1 | 66.7 | 0.146 µM [rising, partial curve, poor fit] | 29.1 µM [rising, single point] |
| COc1cccc(-c2nc(C(=O)NCCCN3CCOCC3)cc3c2[nH]c2ccccc23)c1 | -17.9 | 16.4 µM [falling, single point] |  |
| COc1ccc2oc(C(=O)OCC(=O)N(Cc3ccccc3)C(C)(C)C)c(C)c2c1 | -37.7 |  | 29.1 µM [falling, single point] |
| COCc1cc(C)nc(SCC(=O)Nc2ccc3c(c2)n(C)c(=O)n3C)c1C#N | -7.33 |  |  |
| CC(C)OC(=O)c1ccc(N2CCN(c3ccc(F)cc3)CC2)nc1 | -6.67 | 0.146 µM [rising, full curve, poor fit] |  |
| COc1ccc(-c2cc(C(=O)N3CCOCC3)c3ccccc3n2)cc1OC | 12 |  |  |
| COc1cc(NC(=O)CSCc2ccccc2)c(C(=O)O)cc1OC | -9.52 | 29.1 µM [rising, single point] |  |
| Cc1c(Br)cc(C(=O)NCc2ccco2)c(C)c1C | -0.369 | 32.6 µM [falling, single point] |  |

| SMILES | cell number change [%] | AC50 [1] | AC50 [2] |
| --- | --- | --- | --- |
| Cc1nn(CC(=O)NCC(C)c2ccccc2)c(=O)c2cccn12 (centres undefined) | 17 | 2.59 µM [rising, single point] | 3.66 µM [rising, single point] |
| CCCC(O)(c1ccc(OC)cc1)C(CN(C)C)c1ccccc1 (centres undefined) | -1.07 |  |  |
| CCS(=O)(=O)Nc1c(C)n(C)n(-c2ccccc2)c1=O | -22.6 | 6.51 µM [falling, single point] | 0.517 µM [falling, full curve, poor fit] |
| O=C(Cc1cccc(Cl)c1)Nc1ccc(Br)cc1 | -17 | 5.8 µM [falling, full curve, poor fit] |  |
| N#Cc1nc(-c2ccc(OCc3ccccc3)cc2)oc1NCCCN1CCOCC1 | -20.8 | 1.64 µM [rising, partial curve] |  |
| CCn1c(SCC(=O)c2ccc(O)c(O)c2)nnc1-c1ccccc1 |  | 0.82 µM [falling, full curve, poor fit] |  |
| CC1(c2ccc(Cl)cc2)NC(=O)N(CC(=O)N2CCCC2)C1=O (centres undefined) | 2.8 |  | 0.0058 µM [falling, full curve, poor fit] |
| COc1cc(/C=N/NC(=O)CN(CCc2ccccc2)S(=O)(=O)c2ccc(NC(C)=O)cc2)cc(OC)c1OC | 9.73 |  |  |
| CCC1Oc2ccccc2C(=O)N(CC(=O)c2ccc3c(c2)OCCO3)C1=O (centres undefined) |  | 29.1 µM [falling, single point] |  |
| CC(C)N(CCNC(=O)C1CCC(=O)N1Cc1ccc(F)cc1)Cc1ccccc1 (centres undefined) | 32.2 |  | 18.4 µM [rising, single point] |
| CCCCc1nnc(NC(=O)c2ccc(S(=O)(=O)N3CCOCC3)cc2)s1 | 7.54 | 29.1 µM [rising, single point] |  |
| COc1ccc(NS(=O)(=O)c2cccc(C(=O)NCC(c3ccco3)N(C)C)c2)cc1 (centres undefined) | 49.2 |  | 16.4 µM [rising, single point] |
| CCOc1ccccc1N(C)C(=O)c1sc2ncn(CC(=O)N3CCCCC3C)c(=O)c2c1C (centres undefined) | 43.6 | 2.59 µM [falling, full curve] | 0.259 µM [rising, full curve, poor fit] |
| CCC(=O)NC(c1ccco1)c1cc(Cl)c2ccccc2c1O (centres undefined) | -13.6 | 25.9 µM [rising, partial curve, poor fit] |  |
| CC(C)CC(NS(=O)(=O)c1ccccc1)C(=O)O (centres undefined) | -77.9 |  | 11.6 µM [falling, partial curve] |

Given as tab-separated lines: part of the list above
SMILES	cell number change [%]	AC50 [1]	AC50 [2]
CCCC(O)(c1ccc(OC)cc1)C(CN(C)C)c1ccccc1 (centres undefined)	-1.07		
CCS(=O)(=O)Nc1c(C)n(C)n(-c2ccccc2)c1=O	-22.6	6.51 µM [falling, single point]	0.517 µM [falling, full curve, poor fit]
